Data source: PubChem BioAssay AID686943 (Drosophila RNAi Screening Center, 2013)
In all, the deposit lists about 23,000 reagents; shown is a random part of those with a known target gene and a result. 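Extra replicates exist only for a retested subset of genes; insulin dose and duration not given; both raised and lowered dpERK matter.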 Names joined by + are all predicted targets of the reagent. Further read-outs or replicates are left out here. Reagent sequences are not shown. Not stated in the record: the amount of reagent, the time to read-out.

Aim: 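Fly genes whose loss alters ERK activation after insulin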 (primary screen)
System: Drosophila S2R+ haemocyte-like cells expressing YFP-tagged ERK (Rolled)
Knock-down reagent: long dsRNA against Drosophila genes
Challenge: insulin stimulation versus unstimulated cells; dose and duration not given
Detection: 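Antibody staining for doubly phosphorylated ERK divided by ERK-YFP signal, as plate z-scores, in insulin-treated and untreated cells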
Scale: replicate 1, z-score of dpERK with insulin and replicate 2, z-score of dpERK with insulin: higher = more active ERK per ERK-YFP after insulin; replicate 1, z-score of dpERK under basal conditions: higher = more basal active ERK per ERK-YFP

gene knocked down	dsRNA	replicate 1, z-score of dpERK with insulin	replicate 2, z-score of dpERK with insulin	replicate 1, z-score of dpERK under basal conditions
mesh (GeneID 43688)	DRSC14472	0.78	-0.07	-0.61
mesh (GeneID 43688)	DRSC15098	-0.15	0	-0.47
mesh (GeneID 43688)	DRSC15099	-0.17	-0.05	-0.66
Cpsf160 (GeneID 44250)	DRSC05968	1.1	1.4	0.72
Pex3 (GeneID 39652)	DRSC10731	0.05	-0.61	0.36
CG34345 (GeneID 5740402)	DRSC02126	0.75	0.67	2.15
Ccn (GeneID 39972)	DRSC09504	0.38	-0.09	0.46
Ccn (GeneID 39972)	DRSC09506	-4.89	-4.32	-0.69
Ccn (GeneID 39972)	DRSC10062	-0.09	-0.38	1.12
Ccn (GeneID 39972)	DRSC10063	2.33	0.61	0.3
CG10730 (GeneID 35291)	DRSC02102	0.17	0.1	0.19
cni (GeneID 34967)	DRSC03512	-0.47	0.31	-0.95
CG11885 (GeneID 33215)	DRSC00329	-0.26	-0.93	0.25
CG10338 (GeneID 35124)	DRSC02039	0.61	0.88	1.47
thr (GeneID 37042)	DRSC07706	-1.39	0.08	-2.1
EMC8-9 (GeneID 37635)	DRSC04380	-0.12	0.67	-0.29
Lint-1 + rtv	DRSC19541	0.07	0.67	-1.07
CG9393 (GeneID 41152)	DRSC16486	-1.41	-0.92	0.14
RpS10a (GeneID 43321)	DRSC14161	0.43	0.99	-0.87
CG10435 (GeneID 40948)	DRSC14246	0.03	0.8	0.22
CG34423 + Mthfs	DRSC04088	-0.05	-0.39	-1.07
CG10909 (GeneID 41581)	DRSC14282	-0.76	-0.83	-0.76
Ptpmeg (GeneID 38059)	DRSC08684	0.81	0.5	1.46
Ptr (GeneID 35546)	DRSC04852	-0.81	-0.22	0.6
Ptr (GeneID 35546)	DRSC21517	0.09	0.34	-0.39
XNP (GeneID 43080)	DRSC15594	0.02	-0.46	-0.45
CG30284 (GeneID 246527)	DRSC22150	0.07	-0.6	-0.5
Tim9a (GeneID 32294)	DRSC19753	-0.24	-0.31	-0.6
Meltrin (GeneID 3772109)	DRSC16274	0.28	0.93	-0.24
Meltrin (GeneID 3772109)	DRSC21693	0.91	-0.29	0.25
CG1578 (GeneID 32135)	DRSC19729	0.82	1.32	1.33
Snm1 (GeneID 40669)	DRSC12130	0.08	-0.1	0.13
CG43234 (retired record) (GeneID 12798025)	DRSC01786	-0.48	0.45	0.76
nau (GeneID 42799)	DRSC17011	0.2	-0.1	1.26
Mst98Cb (GeneID 43367)	DRSC16750	-0.17	0.41	-0.26
Mst98Cb (GeneID 43367)	DRSC22495	-0.15	-0.45	-0.86
CHOp24 (GeneID 31382)	DRSC18310	0.85	0.41	-0.72
lola (GeneID 44548)	DRSC05220	-4.13	-4.54	-0.68
lola (GeneID 44548)	DRSC05221	-0.48	0.25	-0.07
lola (GeneID 44548)	DRSC05222	-0.2	0.76	1.31
lola (GeneID 44548)	DRSC05223	-2.11	-1.49	1.08
lola (GeneID 44548)	DRSC05224	0.01	-1.66	1.82
lola (GeneID 44548)	DRSC06738	0.37	1.08	1.82
lola (GeneID 44548)	DRSC06739	0.31	0.88	-1.13
lola (GeneID 44548)	DRSC06740	-0.09	-0.09	0.72
lola (GeneID 44548)	DRSC06741	-0.77	0.12	0.33
lola (GeneID 44548)	DRSC06742	-4.59	-3.74	-1.04
lola (GeneID 44548)	DRSC07646	0.03	-0.28	-0.32
lola (GeneID 44548)	DRSC07647	-0.65	-0.27	-0.6
Hr3 (GeneID 36073)	DRSC06118	-1.65	-2.01	-2.03
Hr3 (GeneID 36073)	DRSC07441	0.59	0.2	0.14
yellow-c + CIAPIN1	DRSC01898	0.21	0.23	0.52
Tsp66E (GeneID 39017)	DRSC09683	0.39	-0.1	-0.03
msl-3 (GeneID 38779)	DRSC11371	0.16	0.41	-1.59
sl (GeneID 32601)	DRSC20377	1.03	1.36	2.14
sl (GeneID 32601)	DRSC21782	-0.57	-0.98	-0.14
CG10324 (GeneID 42028)	DRSC14230	0.6	-1.48	0.34

Reformatted: entries from further up
| gene knocked down | dsRNA | replicate 1, z-score of dpERK with insulin | replicate 2, z-score of dpERK with insulin | replicate 1, z-score of dpERK under basal conditions |
| --- | --- | --- | --- | --- |
| Meltrin (GeneID 3772109) | DRSC21693 | 0.91 | -0.29 | 0.25 |
| CG1578 (GeneID 32135) | DRSC19729 | 0.82 | 1.32 | 1.33 |
| Snm1 (GeneID 40669) | DRSC12130 | 0.08 | -0.1 | 0.13 |
| CG43234 (retired record) (GeneID 12798025) | DRSC01786 | -0.48 | 0.45 | 0.76 |
| nau (GeneID 42799) | DRSC17011 | 0.2 | -0.1 | 1.26 |
| Mst98Cb (GeneID 43367) | DRSC16750 | -0.17 | 0.41 | -0.26 |
| Mst98Cb (GeneID 43367) | DRSC22495 | -0.15 | -0.45 | -0.86 |
| CHOp24 (GeneID 31382) | DRSC18310 | 0.85 | 0.41 | -0.72 |
| lola (GeneID 44548) | DRSC05220 | -4.13 | -4.54 | -0.68 |
